Measurements taken from publication PMC7051184, “C9orf72 arginine-rich dipeptide repeat proteins disrupt karyopherin-mediated nuclear import” (eLife, 2020).

Sequences of proteins named here, by UniProt entry; tags and fusion partners are left off. A change or cut given only in a name is not applied to a line headed by its entry.
UniProt Q02630: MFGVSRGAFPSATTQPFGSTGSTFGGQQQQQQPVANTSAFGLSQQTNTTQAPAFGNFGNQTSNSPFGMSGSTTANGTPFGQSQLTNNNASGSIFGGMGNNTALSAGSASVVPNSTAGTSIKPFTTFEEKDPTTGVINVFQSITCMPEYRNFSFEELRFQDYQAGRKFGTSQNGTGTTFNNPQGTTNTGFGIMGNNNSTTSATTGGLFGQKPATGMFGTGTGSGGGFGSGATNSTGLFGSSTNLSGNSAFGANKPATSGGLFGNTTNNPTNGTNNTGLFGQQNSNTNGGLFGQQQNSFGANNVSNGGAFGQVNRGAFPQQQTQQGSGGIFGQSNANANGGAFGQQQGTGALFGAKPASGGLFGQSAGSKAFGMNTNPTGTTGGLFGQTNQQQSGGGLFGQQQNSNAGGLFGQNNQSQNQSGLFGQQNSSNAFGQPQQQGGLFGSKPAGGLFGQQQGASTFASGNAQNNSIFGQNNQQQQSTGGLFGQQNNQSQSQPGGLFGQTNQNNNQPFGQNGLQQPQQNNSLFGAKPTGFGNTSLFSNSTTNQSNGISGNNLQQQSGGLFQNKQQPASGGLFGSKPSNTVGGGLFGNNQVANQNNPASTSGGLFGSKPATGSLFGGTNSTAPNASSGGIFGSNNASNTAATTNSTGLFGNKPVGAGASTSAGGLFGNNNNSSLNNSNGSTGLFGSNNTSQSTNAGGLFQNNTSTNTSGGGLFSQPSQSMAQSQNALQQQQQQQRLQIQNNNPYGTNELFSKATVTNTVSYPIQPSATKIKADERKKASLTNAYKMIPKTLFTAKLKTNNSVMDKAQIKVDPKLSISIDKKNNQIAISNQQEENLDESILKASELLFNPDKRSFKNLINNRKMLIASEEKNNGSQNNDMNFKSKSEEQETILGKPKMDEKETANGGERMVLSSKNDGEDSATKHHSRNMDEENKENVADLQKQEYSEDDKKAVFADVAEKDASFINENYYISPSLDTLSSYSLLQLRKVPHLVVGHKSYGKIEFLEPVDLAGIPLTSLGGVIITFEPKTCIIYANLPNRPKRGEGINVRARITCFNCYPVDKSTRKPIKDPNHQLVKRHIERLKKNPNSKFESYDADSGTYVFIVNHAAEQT

Target: GST-Nup116(348-458) F > A, mutant GLFG domain of yeast Nup116 (S. cerevisiae) (UniProt Q02630)
Assay: bead halo assay; GST-fused yeast FG- and GLFG-domains on glutathione polystyrene beads; AF488-DPRs in binding buffer; rim vs. background ratio, Nup116 F→A beads define the non-specific level; both purified

Binder	binding
GRGRGRGRGRGRGRGRGRGRKC (Alexa Fluor 488 C5-maleimide on the C-terminal cysteine) [AF488-labeled GR10]	no binding
PRPRPRPRPRPRPRPRPRPRKC (Alexa Fluor 488 C5-maleimide on the C-terminal cysteine) [AF488-labeled PR10]	no binding

No constants are given. Whether binding was seen depends on the method and setting.
